Article PMC11787094
Results are given in words; binding and its absence hold for the method and conditions named. Binding seen in cells or lysates may run through a third protein. Some binding calls cover weakened binding; strength is not graded here.

By UniProt entry, the sequences of proteins in these tests, tags left out.
UniProt P51683: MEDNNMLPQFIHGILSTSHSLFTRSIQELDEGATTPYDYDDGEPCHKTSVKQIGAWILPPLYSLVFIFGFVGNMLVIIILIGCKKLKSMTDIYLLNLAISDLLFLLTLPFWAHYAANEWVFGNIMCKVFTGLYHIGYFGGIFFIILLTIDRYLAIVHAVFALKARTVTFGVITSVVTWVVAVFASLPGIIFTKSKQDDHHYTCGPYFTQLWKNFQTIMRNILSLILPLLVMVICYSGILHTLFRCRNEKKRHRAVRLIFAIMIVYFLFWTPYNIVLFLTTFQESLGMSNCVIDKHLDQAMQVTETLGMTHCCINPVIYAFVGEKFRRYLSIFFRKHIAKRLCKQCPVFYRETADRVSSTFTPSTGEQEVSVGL
UniProt P46935: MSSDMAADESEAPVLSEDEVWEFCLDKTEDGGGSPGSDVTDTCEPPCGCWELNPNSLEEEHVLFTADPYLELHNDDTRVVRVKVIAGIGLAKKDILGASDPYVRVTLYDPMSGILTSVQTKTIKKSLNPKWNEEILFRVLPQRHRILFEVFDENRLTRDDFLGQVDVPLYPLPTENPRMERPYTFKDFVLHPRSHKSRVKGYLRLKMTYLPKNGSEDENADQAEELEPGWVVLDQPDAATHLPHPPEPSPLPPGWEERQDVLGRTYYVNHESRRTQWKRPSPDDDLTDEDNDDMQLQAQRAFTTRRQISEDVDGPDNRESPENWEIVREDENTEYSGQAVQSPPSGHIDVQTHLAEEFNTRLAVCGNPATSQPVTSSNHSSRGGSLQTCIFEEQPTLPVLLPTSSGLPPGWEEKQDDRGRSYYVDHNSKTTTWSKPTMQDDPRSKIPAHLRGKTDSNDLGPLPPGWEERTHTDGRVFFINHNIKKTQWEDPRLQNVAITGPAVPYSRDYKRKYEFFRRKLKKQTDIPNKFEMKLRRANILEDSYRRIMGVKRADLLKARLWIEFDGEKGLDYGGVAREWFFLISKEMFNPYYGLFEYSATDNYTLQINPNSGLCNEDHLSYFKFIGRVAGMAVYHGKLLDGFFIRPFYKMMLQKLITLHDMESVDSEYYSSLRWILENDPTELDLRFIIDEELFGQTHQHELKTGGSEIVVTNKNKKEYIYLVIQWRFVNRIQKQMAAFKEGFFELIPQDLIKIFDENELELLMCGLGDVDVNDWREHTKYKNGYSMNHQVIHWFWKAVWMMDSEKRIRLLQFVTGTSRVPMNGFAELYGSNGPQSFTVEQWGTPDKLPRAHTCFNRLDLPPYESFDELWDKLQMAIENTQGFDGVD

Target: CCR2 (mouse (endogenous in bone marrow-derived MDSCs of C57BL/6J mice)) (UniProt P51683)
Assay: co-IP; reciprocal co-IP of endogenous proteins from MDSC lysate; anti-NEDD4 or anti-CCR2 antibody on Protein G magnetic beads, lysate rotated overnight at 4 °C, three washes, immunoblot

Substance: NEDD4 E3 ligase (from UniProt P46935 1-887) (enzyme)
- binding: binds
